From the supplement of paper PMC10849652
The other results are listed elsewhere or left out.

By UniProt entry, the sequences of proteins in these tests, tags left out. Where a name states a change or a piece, a line headed by the entry shows the natural chain unless it says otherwise.
UniProt O14770: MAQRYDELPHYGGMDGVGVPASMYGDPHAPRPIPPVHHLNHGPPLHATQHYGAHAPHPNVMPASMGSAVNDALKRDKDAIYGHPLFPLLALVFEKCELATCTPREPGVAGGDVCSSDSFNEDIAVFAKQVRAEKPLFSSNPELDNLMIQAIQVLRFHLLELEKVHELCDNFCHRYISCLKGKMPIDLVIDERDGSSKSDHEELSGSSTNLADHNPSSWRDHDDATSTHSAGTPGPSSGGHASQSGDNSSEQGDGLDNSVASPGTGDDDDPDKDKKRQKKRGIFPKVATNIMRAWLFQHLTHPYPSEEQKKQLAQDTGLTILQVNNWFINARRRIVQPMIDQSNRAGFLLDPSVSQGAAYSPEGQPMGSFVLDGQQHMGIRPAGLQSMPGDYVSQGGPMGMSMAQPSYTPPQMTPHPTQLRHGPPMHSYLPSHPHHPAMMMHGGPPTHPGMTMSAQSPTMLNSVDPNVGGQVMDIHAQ
UniProt Q9BTE3: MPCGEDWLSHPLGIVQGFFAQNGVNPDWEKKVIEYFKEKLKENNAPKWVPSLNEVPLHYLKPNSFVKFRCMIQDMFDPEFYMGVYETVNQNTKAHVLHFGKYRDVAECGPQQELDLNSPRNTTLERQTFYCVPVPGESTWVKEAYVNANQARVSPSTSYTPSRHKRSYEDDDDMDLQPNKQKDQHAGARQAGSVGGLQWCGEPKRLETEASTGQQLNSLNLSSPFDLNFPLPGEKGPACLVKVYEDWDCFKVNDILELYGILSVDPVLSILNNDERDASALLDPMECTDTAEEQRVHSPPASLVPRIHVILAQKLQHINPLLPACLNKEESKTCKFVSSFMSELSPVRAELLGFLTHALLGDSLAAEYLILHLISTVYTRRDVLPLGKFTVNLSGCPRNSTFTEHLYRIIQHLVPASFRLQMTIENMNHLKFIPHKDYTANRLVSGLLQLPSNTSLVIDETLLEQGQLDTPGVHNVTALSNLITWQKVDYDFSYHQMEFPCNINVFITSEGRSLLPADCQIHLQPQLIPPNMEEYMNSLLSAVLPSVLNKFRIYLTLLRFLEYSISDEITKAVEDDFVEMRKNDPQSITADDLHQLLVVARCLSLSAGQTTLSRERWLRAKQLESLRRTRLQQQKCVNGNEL
UniProt Q14566: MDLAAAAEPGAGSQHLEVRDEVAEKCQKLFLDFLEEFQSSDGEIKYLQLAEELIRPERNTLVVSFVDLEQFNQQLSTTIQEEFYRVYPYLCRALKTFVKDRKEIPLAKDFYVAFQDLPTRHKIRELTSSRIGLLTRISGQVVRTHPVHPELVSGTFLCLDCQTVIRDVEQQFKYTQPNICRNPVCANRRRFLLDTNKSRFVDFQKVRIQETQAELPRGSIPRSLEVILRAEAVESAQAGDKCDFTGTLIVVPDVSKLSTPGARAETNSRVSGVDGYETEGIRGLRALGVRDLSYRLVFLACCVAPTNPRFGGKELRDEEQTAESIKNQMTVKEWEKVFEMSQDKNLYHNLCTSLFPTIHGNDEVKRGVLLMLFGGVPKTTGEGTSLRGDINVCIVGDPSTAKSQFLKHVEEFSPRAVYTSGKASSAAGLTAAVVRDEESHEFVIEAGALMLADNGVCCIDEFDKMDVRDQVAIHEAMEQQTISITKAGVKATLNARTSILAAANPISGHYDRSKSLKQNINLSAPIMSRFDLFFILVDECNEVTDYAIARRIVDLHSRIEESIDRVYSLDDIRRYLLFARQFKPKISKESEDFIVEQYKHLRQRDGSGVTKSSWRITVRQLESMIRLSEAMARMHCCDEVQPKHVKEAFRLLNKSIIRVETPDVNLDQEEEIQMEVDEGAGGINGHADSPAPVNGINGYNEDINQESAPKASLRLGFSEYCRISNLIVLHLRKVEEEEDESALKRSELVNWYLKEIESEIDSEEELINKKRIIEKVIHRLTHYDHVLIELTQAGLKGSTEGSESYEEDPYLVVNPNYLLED
UniProt P51608, whole entry, looked up: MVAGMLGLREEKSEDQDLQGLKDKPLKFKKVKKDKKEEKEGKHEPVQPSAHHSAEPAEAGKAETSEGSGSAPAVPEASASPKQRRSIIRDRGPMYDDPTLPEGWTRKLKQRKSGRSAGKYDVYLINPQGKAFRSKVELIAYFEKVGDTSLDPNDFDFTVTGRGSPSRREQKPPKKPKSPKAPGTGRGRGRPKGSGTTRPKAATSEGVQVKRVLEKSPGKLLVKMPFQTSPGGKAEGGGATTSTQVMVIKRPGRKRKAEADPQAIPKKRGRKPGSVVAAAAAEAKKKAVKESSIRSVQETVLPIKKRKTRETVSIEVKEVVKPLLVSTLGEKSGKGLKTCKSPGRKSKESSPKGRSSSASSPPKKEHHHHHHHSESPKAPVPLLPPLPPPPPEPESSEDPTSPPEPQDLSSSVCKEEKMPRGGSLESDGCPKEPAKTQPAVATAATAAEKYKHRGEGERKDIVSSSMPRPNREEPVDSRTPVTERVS
UniProt Q86W50: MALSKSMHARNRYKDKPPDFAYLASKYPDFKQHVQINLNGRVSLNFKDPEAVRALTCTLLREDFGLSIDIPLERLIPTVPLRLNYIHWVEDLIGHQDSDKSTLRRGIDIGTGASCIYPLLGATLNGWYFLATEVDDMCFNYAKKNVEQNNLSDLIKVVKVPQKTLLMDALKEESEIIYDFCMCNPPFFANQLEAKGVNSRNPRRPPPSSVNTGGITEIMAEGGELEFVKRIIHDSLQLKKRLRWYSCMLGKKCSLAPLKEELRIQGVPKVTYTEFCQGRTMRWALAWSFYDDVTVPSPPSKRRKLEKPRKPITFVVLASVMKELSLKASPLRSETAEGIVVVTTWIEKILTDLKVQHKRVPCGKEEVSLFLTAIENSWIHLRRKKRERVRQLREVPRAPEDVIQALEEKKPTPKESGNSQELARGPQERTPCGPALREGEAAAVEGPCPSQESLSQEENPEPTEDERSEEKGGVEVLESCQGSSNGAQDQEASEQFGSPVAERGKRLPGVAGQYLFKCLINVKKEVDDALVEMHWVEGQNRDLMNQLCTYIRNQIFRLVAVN
UniProt Q07820, whole entry, looked up: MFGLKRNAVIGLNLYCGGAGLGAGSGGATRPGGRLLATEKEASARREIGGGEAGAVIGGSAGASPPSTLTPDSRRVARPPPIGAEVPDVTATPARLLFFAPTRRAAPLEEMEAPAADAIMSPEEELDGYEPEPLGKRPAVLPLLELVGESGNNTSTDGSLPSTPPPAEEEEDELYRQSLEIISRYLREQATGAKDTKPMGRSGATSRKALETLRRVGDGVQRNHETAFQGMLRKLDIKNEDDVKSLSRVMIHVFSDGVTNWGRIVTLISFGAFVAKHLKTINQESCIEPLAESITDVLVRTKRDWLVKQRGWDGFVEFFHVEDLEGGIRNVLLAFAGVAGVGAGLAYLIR
UniProt Q86U44, whole entry, looked up: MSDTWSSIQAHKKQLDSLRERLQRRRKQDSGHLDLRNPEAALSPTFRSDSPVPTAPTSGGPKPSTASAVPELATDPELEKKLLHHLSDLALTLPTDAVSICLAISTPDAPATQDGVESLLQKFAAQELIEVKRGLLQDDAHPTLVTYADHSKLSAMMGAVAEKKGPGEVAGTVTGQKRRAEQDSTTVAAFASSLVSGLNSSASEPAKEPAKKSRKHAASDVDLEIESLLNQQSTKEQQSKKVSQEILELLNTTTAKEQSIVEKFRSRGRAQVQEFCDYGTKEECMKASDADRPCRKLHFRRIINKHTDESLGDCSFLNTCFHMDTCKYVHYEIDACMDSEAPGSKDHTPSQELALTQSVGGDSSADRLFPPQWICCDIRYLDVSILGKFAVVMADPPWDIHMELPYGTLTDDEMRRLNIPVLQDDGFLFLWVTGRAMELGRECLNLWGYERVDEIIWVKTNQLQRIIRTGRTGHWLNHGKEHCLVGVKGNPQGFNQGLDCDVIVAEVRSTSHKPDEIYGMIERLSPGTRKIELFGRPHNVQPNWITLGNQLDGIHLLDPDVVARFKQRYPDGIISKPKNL
UniProt Q9NRN9: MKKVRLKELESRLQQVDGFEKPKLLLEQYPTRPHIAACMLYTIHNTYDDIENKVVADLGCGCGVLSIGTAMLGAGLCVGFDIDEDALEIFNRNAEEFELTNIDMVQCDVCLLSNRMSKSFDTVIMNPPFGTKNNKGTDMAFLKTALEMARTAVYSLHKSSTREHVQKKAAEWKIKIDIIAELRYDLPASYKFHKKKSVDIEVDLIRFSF
UniProt Q9NS73: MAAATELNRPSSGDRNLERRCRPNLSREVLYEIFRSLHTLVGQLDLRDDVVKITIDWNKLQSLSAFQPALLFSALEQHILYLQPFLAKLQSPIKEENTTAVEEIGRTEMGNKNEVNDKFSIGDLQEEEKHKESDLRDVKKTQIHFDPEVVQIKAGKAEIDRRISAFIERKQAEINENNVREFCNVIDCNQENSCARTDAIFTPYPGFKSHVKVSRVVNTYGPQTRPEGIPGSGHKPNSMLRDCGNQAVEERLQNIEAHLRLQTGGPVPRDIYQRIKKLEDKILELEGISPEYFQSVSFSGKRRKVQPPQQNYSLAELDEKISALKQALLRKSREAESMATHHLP
UniProt Q9HCE5: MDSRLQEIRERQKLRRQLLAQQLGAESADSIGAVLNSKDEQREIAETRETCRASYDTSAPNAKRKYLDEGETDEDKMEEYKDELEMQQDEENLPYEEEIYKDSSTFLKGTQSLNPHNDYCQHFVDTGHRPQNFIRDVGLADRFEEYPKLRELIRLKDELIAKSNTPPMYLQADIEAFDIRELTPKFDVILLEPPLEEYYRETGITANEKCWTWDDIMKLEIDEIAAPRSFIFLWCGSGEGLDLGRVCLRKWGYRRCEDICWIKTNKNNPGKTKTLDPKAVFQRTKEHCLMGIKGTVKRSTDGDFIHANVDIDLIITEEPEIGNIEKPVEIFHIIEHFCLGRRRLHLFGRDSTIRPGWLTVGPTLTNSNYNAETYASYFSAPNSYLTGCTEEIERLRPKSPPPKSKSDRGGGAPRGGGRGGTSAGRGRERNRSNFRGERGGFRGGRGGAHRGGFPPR
UniProt Q14696: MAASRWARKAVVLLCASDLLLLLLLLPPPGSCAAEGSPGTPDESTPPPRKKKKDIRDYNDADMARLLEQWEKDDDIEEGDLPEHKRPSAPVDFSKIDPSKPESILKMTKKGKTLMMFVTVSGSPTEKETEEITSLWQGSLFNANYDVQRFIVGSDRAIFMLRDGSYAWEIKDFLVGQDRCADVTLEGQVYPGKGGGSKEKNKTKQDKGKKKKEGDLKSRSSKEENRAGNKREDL
UniProt Q7L2J0: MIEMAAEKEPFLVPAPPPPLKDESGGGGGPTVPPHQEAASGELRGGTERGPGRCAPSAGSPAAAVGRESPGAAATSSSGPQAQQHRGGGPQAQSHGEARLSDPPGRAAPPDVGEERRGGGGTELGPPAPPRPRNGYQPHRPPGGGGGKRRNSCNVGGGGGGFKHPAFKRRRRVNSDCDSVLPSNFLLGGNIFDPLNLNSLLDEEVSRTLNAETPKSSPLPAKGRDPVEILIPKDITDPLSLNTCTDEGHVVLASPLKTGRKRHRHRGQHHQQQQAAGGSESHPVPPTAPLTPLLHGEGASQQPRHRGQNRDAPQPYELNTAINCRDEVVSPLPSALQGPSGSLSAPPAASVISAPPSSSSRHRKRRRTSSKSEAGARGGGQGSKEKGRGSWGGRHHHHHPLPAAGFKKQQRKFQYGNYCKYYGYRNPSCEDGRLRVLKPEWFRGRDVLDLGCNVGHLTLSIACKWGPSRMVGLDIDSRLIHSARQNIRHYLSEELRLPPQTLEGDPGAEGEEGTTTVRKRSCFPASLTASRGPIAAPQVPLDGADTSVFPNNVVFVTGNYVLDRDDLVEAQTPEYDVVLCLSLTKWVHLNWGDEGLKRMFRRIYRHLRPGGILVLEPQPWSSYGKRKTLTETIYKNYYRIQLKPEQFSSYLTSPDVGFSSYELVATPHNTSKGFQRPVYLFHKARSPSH
UniProt O43513: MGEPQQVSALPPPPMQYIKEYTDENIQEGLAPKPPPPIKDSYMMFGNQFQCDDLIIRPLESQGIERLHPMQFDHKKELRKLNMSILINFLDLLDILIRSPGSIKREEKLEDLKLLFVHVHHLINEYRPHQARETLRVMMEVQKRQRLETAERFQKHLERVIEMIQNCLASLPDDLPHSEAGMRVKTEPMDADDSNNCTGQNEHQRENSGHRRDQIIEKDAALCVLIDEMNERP
UniProt Q06413, whole entry, looked up: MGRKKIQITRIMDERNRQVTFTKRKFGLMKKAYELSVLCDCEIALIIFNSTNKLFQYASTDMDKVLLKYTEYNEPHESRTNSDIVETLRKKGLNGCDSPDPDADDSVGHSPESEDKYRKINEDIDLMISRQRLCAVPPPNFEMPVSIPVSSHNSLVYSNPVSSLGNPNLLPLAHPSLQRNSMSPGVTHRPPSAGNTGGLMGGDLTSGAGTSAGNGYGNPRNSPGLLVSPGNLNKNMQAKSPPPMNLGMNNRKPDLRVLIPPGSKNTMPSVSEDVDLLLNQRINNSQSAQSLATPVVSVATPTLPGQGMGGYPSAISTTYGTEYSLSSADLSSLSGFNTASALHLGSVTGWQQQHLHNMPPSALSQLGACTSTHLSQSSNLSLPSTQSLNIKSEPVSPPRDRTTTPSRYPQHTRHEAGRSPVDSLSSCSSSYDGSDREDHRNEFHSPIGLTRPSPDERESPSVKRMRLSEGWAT

Experiments:
Assay in all cases: log2 fold change, soluble protein after heating vs DMSO (PISA); higher = thermal stabilisation; K562 lysate, 10 uM; active = over 0.2 and 3.5 SD of the protein, either way, in both replicates (recomputed)
[1] = compound: NCC(=O)Nc1ccc(-n2nc(C(F)(F)F)cc2-c2ccc3c(ccc4ccccc43)c2)cc1
Summary of the method: (§1)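 Following dounce homogenisation of K562 pellets in PBS pH 7.4 with 1 mM MgCl2, crude extract at 1 mg/mL protein was incubated for 30 min with 10 μM compound. Aliquots were then heated for 3 min over 48°C-58°C and pooled, NP-40 was added to 0.5% at 4°C, and soluble protein was recovered as the supernatant at 21,000xg for 90 min. Channel-sum-equalised TMTpro 16plex LC-MS/MS quantified this protein. Each value, from duplicates, is a log-two fold change in thermal stability relative to solvent controls.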

vorinostat = compound: O=C(CCCCCCC(=O)Nc1ccccc1)NO [vorinostat]
Summary of the method: as §1

silmitasertib = compound: O=C(O)c1ccc2c(c1)nc(Nc1cccc(Cl)c1)c1ccncc12 [silmitasertib]
Summary of the method: as §1

[2] = compound: O=C1NC(=O)C(c2cnc3ccccn23)=C1c1cn2c3c(cc(F)cc13)CN(C(=O)N1CCCCC1)CC2
Summary of the method: as §1

entospletinib = compound: c1cn2cc(-c3ccc4cn[nH]c4c3)nc(Nc3ccc(N4CCOCC4)cc3)c2n1 [entospletinib]
Summary of the method: as §1

Row | Target | log2 fold change [1] | log2 fold change (vorinostat) | log2 fold change (silmitasertib) | log2 fold change [2] | log2 fold change (entospletinib)
1 | MED12 isoform 2 (UniProt Q93074) | inactive: 0.003 | active: -0.466 | inactive: -0.044 | inactive: -0.008 | inactive: -0.012
2 | MED18 (UniProt Q9BUE0) | inactive: -0.073 | inactive: 0.073 | inactive: -0.044 | inactive: -0.05 | inactive: -0.008
3 | MFSD5 isoform 2 (UniProt Q6N075) | inactive: -0.111 | inactive: 0.122 | inactive: -0.002 | inactive: -0.022 | inactive: -0.062
4 | MCCC1 (UniProt Q96RQ3) | inactive: 0.028 | active: -0.292 | inactive: 0.02 | inactive: -0.003 | inactive: 0.023
5 | MEIS2 (UniProt O14770) | inactive: 0.021 | inactive: 0.001 | inactive: -0.127 | inactive: -0.063 | inactive: 0.018
6 | MDP1 (UniProt Q86V88) | inactive: -0.01 | inactive: 0.13 | inactive: 0.017 | inactive: 0.004 | inactive: -0.064
7 | MCMBP (UniProt Q9BTE3) | inactive: -0.01 | active: -0.415 | inactive: 0.028 | inactive: -0.013 | inactive: -0.007
8 | MAVS (UniProt Q7Z434) | inactive: 0.009 | inactive: 0.02 | inactive: -0.007 | inactive: 0.057 | inactive: -0.029
9 | MED16 (UniProt Q9Y2X0) | inactive: -0.005 | active: -0.354 | inactive: 0.052 | inactive: -0.022 | inactive: 0.016
10 | MCM6 (UniProt Q14566) | inactive: -0.019 | inactive: -0.167 | inactive: 0.053 | inactive: -0.003 | inactive: 0.003
11 | MECP2 isoform 2 (UniProt P51608) | inactive: 0.117 | inactive: 0.141 | inactive: -0.014 | inactive: 0.001 | inactive: -0.083
12 | METTL16 (UniProt Q86W50) | inactive: -0.024 | inactive: -0.136 | inactive: 0.006 | inactive: -0.018 | inactive: 0.023
13 | MCL1 (UniProt Q07820) | inactive: -0.028 | inactive: -0.02 | inactive: 0.174 | inactive: -0.008 | inactive: -0.026
14 | METTL3 (UniProt Q86U44) | inactive: 0.021 | inactive: 0.031 | inactive: -0.015 | inactive: -0.016 | inactive: 0.008
15 | MED1 (UniProt Q15648) | inactive: 0.009 | inactive: -0.092 | inactive: -0.022 | inactive: 0.008 | inactive: -0.029
16 | MEF2D (UniProt Q14814) | inactive: -0.032 | inactive: 0.029 | inactive: -0.018 | inactive: -0.031 | inactive: 0.033
17 | METTL5 (UniProt Q9NRN9) | inactive: 0.007 | inactive: 0.141 | inactive: 0 | inactive: -0.011 | inactive: 0.016
18 | MBIP (UniProt Q9NS73) | inactive: 0.113 | inactive: -0.142 | inactive: -0.002 | inactive: -0.25 | inactive: 0.088
19 | MBNL1 (UniProt C9JP00) | inactive: 0.086 | inactive: -0.001 | inactive: -0.031 | inactive: 0.039 | inactive: -0.021
20 | METTL14 (UniProt Q9HCE5) | inactive: -0.029 | inactive: 0.018 | inactive: -0.038 | inactive: 0.006 | inactive: -0.013
21 | MCCC2 (UniProt Q9HCC0) | inactive: 0.02 | inactive: 0.041 | inactive: 0.013 | inactive: 0.014 | inactive: -0.023
22 | MCTS1 isoform 3 (UniProt Q9ULC4) | inactive: 0.004 | inactive: -0.002 | inactive: -0.004 | inactive: -0.001 | inactive: 0.038
23 | MBOAT2 (UniProt Q6ZWT7) | inactive: -0.017 | inactive: 0.13 | inactive: 0.024 | inactive: 0.005 | inactive: -0.092
24 | MESD (UniProt Q14696) | inactive: -0.109 | inactive: 0.117 | inactive: 0.009 | inactive: -0.114 | inactive: 0.011
25 | MEPCE (UniProt Q7L2J0) | inactive: -0.041 | inactive: -0.093 | inactive: 0.005 | inactive: -0.073 | inactive: 0.028
26 | MEA1 (UniProt Q16626) | inactive: 0.02 | inactive: 0.178 | inactive: -0.025 | inactive: 0.023 | inactive: -0.183
27 | MECR (UniProt Q9BV79) | inactive: -0.037 | active: -0.268 | inactive: 0.009 | inactive: -0.016 | inactive: 0.011
28 | MBNL1 isoform 5 (UniProt Q9NR56) | inactive: -0.032 | inactive: -0.068 | inactive: 0.03 | inactive: -0.057 | inactive: 0.001

Row | Target | log2 fold change [1] | log2 fold change (vorinostat) | log2 fold change (silmitasertib) | log2 fold change [2] | log2 fold change (entospletinib)
29 | ME1 (UniProt P48163) | inactive: -0.06 | inactive: 0.142 | inactive: -0.013 | inactive: -0.04 | inactive: -0.006
30 | MEN1 (UniProt O00255) | inactive: -0.052 | inactive: -0.234 | inactive: 0.046 | inactive: 0.217 | inactive: 0.07
31 | MCRIP2 (UniProt Q9BUT9) | inactive: -0.048 | inactive: -0.035 | inactive: -0.147 | inactive: 0.031 | inactive: -0.142
32 | MEGF9 (UniProt Q9H1U4) | inactive: 0.109 | inactive: 0.075 | inactive: -0.105 | – | inactive: 0.171
33 | MEX3D isoform 3 (UniProt Q86XN8) | inactive: 0.014 | inactive: -0.354 | inactive: -0.134 | inactive: -0.015 | inactive: 0
34 | MDH1 isoform 3 (UniProt P40925) | inactive: 0 | inactive: 0.145 | inactive: -0.007 | inactive: 0.012 | inactive: 0.057
35 | MCM7 (UniProt P33993) | inactive: -0.03 | inactive: -0.121 | inactive: 0.109 | inactive: -0.005 | inactive: 0.004
36 | MED30 (UniProt Q96HR3) | inactive: -0.057 | inactive: -0.076 | inactive: -0.001 | inactive: -0.014 | inactive: 0.001
37 | METTL7A (UniProt Q9H8H3) | inactive: 0.037 | inactive: 0.017 | inactive: -0.053 | inactive: 0.274 | inactive: -0.001
38 | MAZ isoform 2 (UniProt P56270) | inactive: 0.127 | inactive: -0.005 | inactive: -0.13 | inactive: 0.006 | inactive: 0.104
39 | MDM1 (UniProt Q8TC05) | inactive: 0.056 | inactive: 0.085 | inactive: 0.093 | – | inactive: -0.119
40 | MBOAT7 (UniProt Q96N66) | inactive: -0.003 | inactive: 0.158 | inactive: -0.027 | inactive: 0.014 | inactive: 0.031
41 | MED7 (UniProt O43513) | inactive: 0.096 | inactive: -0.063 | inactive: 0.003 | inactive: -0.007 | inactive: -0.12
42 | MCAT (UniProt Q8IVS2) | inactive: -0.05 | inactive: 0.063 | inactive: -0.053 | inactive: 0.002 | inactive: -0.021
43 | MERTK (UniProt Q12866) | inactive: -0.093 | inactive: 0.01 | inactive: 0.016 | inactive: -0.027 | inactive: -0.038
44 | METTL1 (UniProt Q9UBP6) | inactive: 0.024 | inactive: 0.003 | inactive: 0.008 | inactive: -0.028 | inactive: -0.065
45 | MDH2 (UniProt P40926) | inactive: -0.002 | inactive: 0.099 | inactive: 0.015 | inactive: -0.016 | inactive: 0.028
46 | MCMBP isoform 2 (UniProt Q9BTE3) | inactive: -0.153 | inactive: -0.413 | inactive: -0.092 | inactive: 0.064 | inactive: -0.654
47 | MED14 (UniProt O60244) | inactive: -0.01 | active: -0.21 | inactive: -0.035 | inactive: 0.002 | inactive: -0.084
48 | MEMO1 (UniProt Q9Y316) | inactive: -0.015 | inactive: 0.043 | inactive: 0 | inactive: 0.015 | inactive: -0.016
49 | MEF2C isoform 5 (UniProt Q06413) | inactive: 0.02 | inactive: 0.006 | inactive: -0.008 | inactive: -0.002 | inactive: 0.003
50 | MATR3 (UniProt P43243) | inactive: 0.071 | inactive: -0.102 | inactive: 0.017 | inactive: -0.009 | inactive: 0.018
51 | MFSD6 (UniProt Q6ZSS7) | – | inactive: 0.285 | inactive: -0.124 | – | inactive: -0.11
52 | MED31 (UniProt Q9Y3C7) | – | inactive: -0.065 | inactive: -0.031 | inactive: -0.012 | –
53 | MBTPS2 (UniProt O43462) | – | – | – | inactive: 0.084 | inactive: 0.065
54 | METTL25 (UniProt Q8N6Q8) | inactive: -0.145 | – | – | – | inactive: 0.017
55 | METTL2B (UniProt Q6P1Q9) | – | – | – | inactive: -0.166 | –

Some of the entries so far, in CSV form.
Row,Target,log2 fold change [1],log2 fold change (vorinostat),log2 fold change (silmitasertib),log2 fold change [2],log2 fold change (entospletinib)
39,MDM1 (UniProt Q8TC05),inactive: 0.056,inactive: 0.085,inactive: 0.093,–,inactive: -0.119
40,MBOAT7 (UniProt Q96N66),inactive: -0.003,inactive: 0.158,inactive: -0.027,inactive: 0.014,inactive: 0.031
41,MED7 (UniProt O43513),inactive: 0.096,inactive: -0.063,inactive: 0.003,inactive: -0.007,inactive: -0.12
